Publication PMC3893189

By UniProt entry, the sequences of proteins in these tests, tags left out. Where a name states a change or a piece, a line headed by the entry shows the natural chain unless it says otherwise.
UniProt Q9RWH8: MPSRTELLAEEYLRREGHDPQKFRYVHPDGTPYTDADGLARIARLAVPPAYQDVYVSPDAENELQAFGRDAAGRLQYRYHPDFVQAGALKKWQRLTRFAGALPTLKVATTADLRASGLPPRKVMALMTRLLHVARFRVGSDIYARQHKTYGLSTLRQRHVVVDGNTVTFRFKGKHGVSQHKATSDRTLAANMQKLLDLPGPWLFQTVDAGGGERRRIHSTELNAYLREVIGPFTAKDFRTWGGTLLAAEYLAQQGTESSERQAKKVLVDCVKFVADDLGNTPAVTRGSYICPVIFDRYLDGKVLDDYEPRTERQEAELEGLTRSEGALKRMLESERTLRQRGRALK

Target: T1, His-PprA (recombinant PprA from pETpprA) (Deinococcus radiodurans R1) (UniProt O32504)
T1 sequence: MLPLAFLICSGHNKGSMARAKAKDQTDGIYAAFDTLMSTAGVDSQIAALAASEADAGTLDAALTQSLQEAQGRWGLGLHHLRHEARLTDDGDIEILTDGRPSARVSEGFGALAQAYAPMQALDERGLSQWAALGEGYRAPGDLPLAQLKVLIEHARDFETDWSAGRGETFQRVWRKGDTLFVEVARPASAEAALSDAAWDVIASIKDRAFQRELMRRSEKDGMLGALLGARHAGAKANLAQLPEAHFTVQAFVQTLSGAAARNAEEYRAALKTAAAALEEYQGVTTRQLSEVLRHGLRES
Test: co-IP; cell free extracts of E. coli with His-PprA and His-DraTopoIB mixed, 4°C, 3 h; precipitated with PprA specific antibody and Protein G agarose in binding buffer (140 mM NaCl, 8 mM sodium phosphate, 2 mM potassium phosphate, 10 mM KCl, pH 7.4); eluted with 500 mM NaCl; blot with anti-His antibodies

binding: binds
Substance: His-DraTopoIB (recombinant D. radiodurans topoisomerase IB from pETtopoIB) (from UniProt Q9RWH8) (enzyme)

These are yes or no findings as the source states them, for the method shown. Binding seen in cells or lysates may run through a third protein. Binding can be weak; no strength is given. Tags and fused reporters may be left off the sequences shown.
